# Laboratory results published in the supplement of paper PMC4683952.
# Counter-ions that a name gives are not always drawn. Out of some 1,200 compounds screened, about 50 (4%) showed activity. No stated cut-off is given here; in the data, all actives reach 1.3 or more but so do some inactives. Some of the results follow.
# Tested on: Lgr5 (MarsCy1-Lgr5-EGFP, U2OS)
# Test: cell-surface Lgr5 expression (SCi1 fluorescence, background-subtracted) relative to WT DMSO (fold of DMSO control); higher = more Lgr5 at the plasma membrane, active = hit call of the paper
# Conditions: U2OS MarsCy1-Lgr5-EGFP stable; treatment time: overnight; 16 µM; library: Johns Hopkins Clinical Compound Library
row,Structure (SMILES),cell-surface Lgr5 expression
1,O=C(OCc1ccccc1)c1ccccc1O [Benzyl salicylate],inactive: 1.12
2,O=C(O)c1cc(/N=N/c2ccc(O)c(C(=O)O)c2)ccc1O [Olsalazine],inactive: 0.807
3,CC(=O)O[C@]1(C(C)=O)CC[C@H]2[C@@H]3C[C@H](C)C4=CC(=O)C=C[C@]4(C)[C@@]3(F)[C@@H](O)C[C@@]21C [Fluorometholone acetate],active: 1.31
4,CC(C)(C(=O)O)c1ccc(C(O)CCCN2CCC(C(O)(c3ccccc3)c3ccccc3)CC2)cc1 (configuration not stated) [Fexofenadine hydrochloride],inactive: 0.998
5,NC(N)=S [Thiourea],inactive: 1.2
6,Cc1c(C)c2c(c(C)c1O)CCC(C)(COc1ccc(CC3SC(=O)NC3=O)cc1)O2 (configuration not stated) [Troglitazone],inactive: 1.09
7,CCC(=O)Oc1ccc(/C(CC)=C(\CC)c2ccc(OC(=O)CC)cc2)cc1 [Diethylstilbestrol dipropionate],inactive: 0.886
8,C[C@H]1COc2c(C3(N)CC3)c(F)cc3c(=O)c(C(=O)O)cn1c23 [Pazufloxacin],inactive: 0.826
9,[Br-].[Li+] [Lithium bromide],inactive: 0.578
10,COC(=O)Nc1nc2cc(C(=O)c3ccccc3)ccc2[nH]1 [Mebendazole],inactive: 0.892
11,"CC(N)C(=O)O (racemic) [Alanine, D, L (DL-alpha-Alanine)]",inactive: 0.867
12,"CN1C(C)(C)CCCC1(C)C [Pempidine (1,2,2,6,6-pentamethylpiperidine)]",inactive: 1.3
13,[Na+].[OH-] [Sodium hydroxide],inactive: 0.75
14,CN(C)/N=N/c1[nH]cnc1C(N)=O [Dacarbazine],inactive: 1.09
15,CC[N+](C)(C)Cc1ccccc1Br [Bretylium tosylate],inactive: 0.812
16,C[N+](C)(C)CCCCCC[N+](C)(C)C [Hexamethonium Chloride],inactive: 0.938
17,O=C(O)c1cccnc1Nc1cccc(C(F)(F)F)c1 [Niflumic acid],inactive: 1.19
18,CCOC(=O)[C@H](CCc1ccccc1)N[C@@H](C)C(=O)N1Cc2ccccc2C[C@H]1C(=O)O [Quinapril],inactive: 1.13
19,[I-].[Rb+] [Rubidium iodide],inactive: 1.04
20,CN1CCc2c(c3ccccc3n2Cc2ccccc2)C1 [Mebhydrolin],inactive: 0.967
21,N=C(N)c1ccc(OCCCCCOc2ccc(C(=N)N)cc2)cc1 [Pentamidine],inactive: 1.33
22,Cn1c(NCCN(CCO)CCCc2ccc([N+](=O)[O-])cc2)cc(=O)n(C)c1=O [Nifekalant],inactive: 0.923
23,OCCOCCN1CCN(C2=Nc3ccccc3Sc3ccccc32)CC1 [Quetiapine fumarate],inactive: 0.456
24,COc1cccc2c1C(=O)c1c(O)c3c(c(O)c1C2=O)C[C@@](O)(C(=O)CO)C[C@@H]3O[C@H]1C[C@H](N)[C@H](O)[C@H](C)O1 [Doxorubicin],inactive: 0.634

row,Structure (SMILES),cell-surface Lgr5 expression
1,COc1cccc2c1[C@@H]1CN(CCCCn3c(=O)[nH]c4c(sc5ncc(-c6ccccc6)nc54)c3=O)C[C@@H]1CO2 [Fiduxosin],inactive: 1.09
2,"Nc1nc(Cl)nc2c1ncn2[C@H]1C[C@H](O)[C@@H](CO)O1 [Cladribine (2-chloro,2-deoxyadenosine)]",inactive: 0.832
3,CN[C@@H]1[C@H](O[C@H]2[C@H](O[C@H]3[C@H](O)[C@@H](O)[C@H](N=C(N)N)[C@@H](O)[C@@H]3N=C(N)N)O[C@@H](C)[C@]2(O)C=O)O[C@@H](CO)[C@H](O)[C@H]1O [Streptomycin sulfate],inactive: 1.05
4,CNCCCC1c2ccccc2C=Cc2ccccc21 [Protriptyline],inactive: 0.38
5,COC(=O)c1cccnc1 [Methyl nicotinate],inactive: 1.24
6,COc1ccc(CCN(C)CCCC(C#N)(c2ccc(OC)c(OC)c2)C(C)C)cc1OC (configuration not stated) [Verapamil],inactive: 0.834
7,[Cl-].[Rb+] [Rubidium Chloride],inactive: 0.62
8,CCCc1cc(=O)[nH]c(=S)[nH]1 [Propylthiouracil (6-n-Propyl-2-thiouracil)],inactive: 0.953
9,C[N+]1(CCCCC[N+]2(C)CCCC2)CCCC1 [Pentolinium],inactive: 0.948
10,O.O.O.O.O.O.[Cl-].[Cl-].[Sr+2] [Strontium chloride hexahydrate],inactive: 1.29
11,C[C@]12CC[C@@H]3c4ccc(O)cc4CC[C@H]3[C@@H]1CC[C@@H]2O [β-Estradiol],inactive: 1.15
12,CCCN(CCC)S(=O)(=O)c1ccc(C(=O)O)cc1 [Probenecid],inactive: 1.01
13,"CCN(CC)C(=O)c1cccnc1 [Nikethamide (N,N Diethylnicotinamide)]",inactive: 1.25
14,"O=P(O)(O)OC1C(OP(=O)(O)O)C(OP(=O)(O)O)C(OP(=O)(O)O)C(OP(=O)(O)O)C1OP(=O)(O)O (configuration not stated) [Phytic acid, dodecasodium salt hydrate]",inactive: 0.522
15,COc1ccc2[nH]c([S+]([O-])Cc3ncc(C)c(OC)c3C)nc2n1 (configuration not stated) [Tenatoprazole],inactive: 1.17
16,CN(C)CCOC(c1ccccc1)c1ccccc1 [Diphenhydramine],inactive: 1.13
17,"O=Cc1cc(Br)cc(Br)c1O [3,5-Dibromosalicylaldehyde]",inactive: 1.17
18,CC(=O)[C@H]1CC[C@H]2[C@@H]3CCC4=CC(=O)CC[C@]4(C)[C@H]3CC[C@]12C [Progesterone],inactive: 1.16
19,C[C@@H](O)CCCCn1c(=O)c2c(ncn2C)n(C)c1=O [Lisofylline],inactive: 1.14
20,O.[Al+3].[Al+3].[Cl-].[OH-].[OH-].[OH-].[OH-].[OH-] [Aluminum chlorohydrate],inactive: 0.754
21,O.O=C(O)[C@H](O)[C@@H](O)[C@H](O)[C@H](O)CO.O=C(O)[C@H](O)[C@@H](O)[C@H](O)[C@H](O)CO.[Fe] [Ferrous gluconate hydrate],inactive: 0.892
22,N=C(N)NC(=O)Cc1c(Cl)cccc1Cl [Guanfacine],inactive: 1.19
23,O=S(O)(O)=S [Sodium Thiosulfate],inactive: 1.04
24,COc1cc(O)c(C(=O)c2ccccc2)cc1S(=O)(=O)O [Sulisobenzone (2-Hydroxy-4-methoxy-5-sulfobenzophenone)],inactive: 0.701

row,Structure (SMILES),cell-surface Lgr5 expression
1,O=C(O)CC(O)(CC(=O)O)C(=O)O [Citric acid],inactive: 1.15
2,O=P([O-])([O-])O.[K+].[K+] [Potassium phosphate dibasic],inactive: 1.09
3,CC(O)C(=O)O.N (configuration not stated) [Ammonium lactate],inactive: 0.823
4,Nc1ccn([C@@H]2O[C@H](CO)[C@@H](O)C2(F)F)c(=O)n1 [Gemcitabine],inactive: 0.795
5,CN1C(=O)CC(c2ccccc2)C1=O (configuration not stated) [Phensuximide],inactive: 0.589
6,CN(C)CCN(Cc1ccccc1)c1ccccn1 [Tripelennamine],inactive: 1.14
7,CC(O)C(=O)[O-].CC(O)C(=O)[O-].[Fe+2] (configuration not stated) [Ferrous lactate],inactive: 1.05
8,Clc1ccc(CSC(Cn2ccnc2)c2ccc(Cl)cc2Cl)cc1 (configuration not stated) [Sulconazole],inactive: 0.608
9,COc1cc2c(cc1OC)[C@@H](Cc1cc(OC)c(OC)c(OC)c1)[N+](C)(CCCOC(=O)CC/C=C/CCC(=O)OCCC[N+]1(C)CCc3cc(OC)c(OC)cc3[C@H]1Cc1cc(OC)c(OC)c(OC)c1)CC2 (some centres not stated) [Mivacurium chloride],inactive: 1.16
10,CCCc1c2oc(C(=O)O)cc(=O)c2cc2c(=O)cc(C(=O)O)n(CC)c12 [Nedocromil sodium],inactive: 1.05
11,CC(=O)O[C@]1(C(C)=O)CC[C@H]2[C@@H]3C=C(Cl)C4=CC(=O)[C@@H]5C[C@@H]5[C@]4(C)[C@H]3CC[C@@]21C [Cyproterone acetate],inactive: 1.25
12,Clc1ccc(CO/N=C(\Cn2ccnc2)c2ccc(Cl)cc2Cl)c(Cl)c1 [Oxiconazole nitrate],inactive: 0.871
13,"CC(=O)OC[C@H]1O[C@@H](n2ncc(=O)[nH]c2=O)[C@H](OC(C)=O)[C@@H]1OC(C)=O [Azaribine (6-Azauridine 2',3',5'-triacetate)]",inactive: 0.832
14,N[C@@H]1CONC1=O [d-Cycloserine],inactive: 1.29
15,CCCCCCCCCCCCCCCC(=O)OC[C@@H](NC(=O)C(Cl)Cl)[C@H](O)c1ccc([N+](=O)[O-])cc1 [Chloramphenicol palmitate],inactive: 0.793
16,O=C([O-])[O-].[Mg+2] [Magnesium carbonate],inactive: 1.15
17,[K+].[OH-] [Potassium hydroxide],inactive: 1.11
18,Clc1ccc(Cn2c(CN3CCCC3)nc3ccccc32)cc1 [Clemizole],inactive: 1.27
19,COc1cc2nc(N(C)CCCNC(=O)C3CCCO3)nc(N)c2cc1OC (configuration not stated) [Alfuzosin],inactive: 0.846
20,Nc1nc(O)c2ncn(COC(CO)CO)c2n1 [Ganciclovir sodium],inactive: 0.959
21,O=[N+]([O-])c1ccc(/C=N/O)o1 [Nifuroxime],inactive: 0.992
22,CC(=O)Oc1ccccc1C(=O)O [Aspirin],inactive: 1.29
23,N=C(N)NS(=O)(=O)c1ccc(N)cc1 [Sulfaguanidine],inactive: 0.791
24,NC[C@@H]1CC[C@@H](N)[C@@H](O[C@H]2[C@H](O)[C@@H](O[C@H]3O[C@H](CO)[C@@H](O)[C@H](N)[C@H]3O)[C@H](N)C[C@@H]2N)O1 [Dibekacin],inactive: 0.922

# A second format for part of the listing above:
row	Structure (SMILES)	cell-surface Lgr5 expression
1	O=C(O)CC(O)(CC(=O)O)C(=O)O [Citric acid]	inactive: 1.15
4	Nc1ccn([C@@H]2O[C@H](CO)[C@@H](O)C2(F)F)c(=O)n1 [Gemcitabine]	inactive: 0.795
7	CC(O)C(=O)[O-].CC(O)C(=O)[O-].[Fe+2] (configuration not stated) [Ferrous lactate]	inactive: 1.05
13	CC(=O)OC[C@H]1O[C@@H](n2ncc(=O)[nH]c2=O)[C@H](OC(C)=O)[C@@H]1OC(C)=O [Azaribine (6-Azauridine 2',3',5'-triacetate)]	inactive: 0.832
15	CCCCCCCCCCCCCCCC(=O)OC[C@@H](NC(=O)C(Cl)Cl)[C@H](O)c1ccc([N+](=O)[O-])cc1 [Chloramphenicol palmitate]	inactive: 0.793
